# Experimental data taken from the supplement of paper PMC8728848.
# The other results are listed elsewhere or left out.
# B1: GroEL (Clostridium difficile), Q18CT5 (protein)
# chain: MAKEIKFSEETRRALEAGVNKLADTVKVTLGPKGRNVILDKKFGSPLITNDGVTIAKEIELEDRFENMGAQLVKEVATKTNDVAGDGTTTATVLAQAIIREGLKNVTAGANPILLRKGIQKAVTVAVEELKNQSRIVETQEAISQVASISAGDEEVGKLIAEAMEIVGKDGVITVEESQTMNTELDAVEGMQFDRGFVSAYMVTDVDKMEAVLNDPYILITDKKISNIQELLPVLEQIVQQGKKLLIIAEDVEGEALSTLVVNKLRGTFDVVAVKAPGFGDRRKEMLQDIAILTGAQVISEELGYDLKEADLSMLGRASSVKVTKESTTIVDGSGDKKAIEDRVTQIKHQVEQTTSDFDREKLMERLAKLAGGVAVVKVGAATEVELKERKLRIEDALNATRAAVEEGIVAGGGTAFVSVIPAIGTLIESLEGEVKLGAQIVKKALEEPLRQIAINAGLEGAVIVQNVVNSEAETGFDALNEKYVNMIEAGIVDPTKVSRSALQNAASIASTFLTTEAAVADLPEKEDAGMPGMGGGMPGMM
# Experiments:
# Experiment in all cases: glycan array binding signal (z-score within array); higher = stronger binding
# Settings in all cases: glycan notation: IUPAC condensed, linker removed
# [1] = biological target: Neu5Ac(a2-3)Gal(b1-3)[Fuc(a1-4)]GlcNAc(b1-3)Gal(b1-3)[Fuc(a1-4)]GlcNAc
# Method in brief: (§1)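 The binding signal is a Z-score computed within each array. Data were drawn from 3228 arrays in the Consortium for Functional Glycomics database, restricted to those with a known protein sequence. Scores were averaged over arrays of the same protein sequence at different concentrations or buffers, and over linkers, and negative values can be taken as non-binding.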
# [2] = biological target: Neu5Ac(a2-3)Gal(b1-3)[Fuc(a1-4)]GlcNAc(b1-3)Gal(b1-4)[Fuc(a1-3)]GlcNAc
# Method in brief: as §1
# [3] = biological target: Neu5Ac(a2-3)Gal(b1-3)[GlcNAc(b1-6)]GalNAc
# Method in brief: as §1
# [4] = biological target: Neu5Ac(a2-3)Gal(b1-3)[Neu5Ac(a2-6)]GalNAc
# Method in brief: as §1
# [5] = biological target: Neu5Ac(a2-3)Gal(b1-3)[Neu5Ac(a2-6)]GlcNAc(b1-3)[Fuc(a1-3)[Gal(b1-4)]GlcNAc(b1-6)]Gal(b1-4)Glc
# Method in brief: as §1
# [6] = biological target: Neu5Ac(a2-3)Gal(b1-3)]Neu5Ac(a2-3)Gal(b1-4)]GlcNAc
# Method in brief: as §1
# [7] = biological target: Neu5Ac(a2-3)Gal(b1-4)Glc
# Method in brief: as §1
# [8] = biological target: Neu5Ac(a2-3)Gal(b1-4)GlcNAc
# Method in brief: as §1
# [9] = biological target: Neu5Ac(a2-3)Gal(b1-4)GlcNAc(b1-2)Man
# Method in brief: as §1
# [10] = biological target: Neu5Ac(a2-3)Gal(b1-4)GlcNAc(b1-2)Man(a1-3)[GlcNAc(b1-4)][Neu5Ac(a2-3)Gal(b1-4)GlcNAc(b1-2)Man(a1-6)]Man(b1-4)GlcNAc(b1-4)GlcNAc
# Method in brief: as §1
# [11] = biological target: Neu5Ac(a2-3)Gal(b1-4)GlcNAc(b1-2)Man(a1-3)[Neu5Ac(a2-3)Gal(b1-4)GlcNAc(b1-2)Man(a1-6)]Man(b1-4)GlcNAc(b1-4)GlcNAc
# Method in brief: as §1
# [12] = biological target: Neu5Ac(a2-3)Gal(b1-4)GlcNAc(b1-2)Man(a1-3)[Neu5Ac(a2-3)Gal(b1-4)GlcNAc(b1-2)Man(a1-6)]Man(b1-4)GlcNAc(b1-4)[Fuc(a1-6)]GlcNAc
# Method in brief: as §1
# [13] = biological target: Neu5Ac(a2-3)Gal(b1-4)GlcNAc(b1-2)Man(a1-3)[Neu5Ac(a2-6)Gal(b1-4)GlcNAc(b1-2)Man(a1-6)]Man(b1-4)GlcNAc(b1-4)GlcNAc
# Method in brief: as §1
# [14] = biological target: Neu5Ac(a2-3)Gal(b1-4)GlcNAc(b1-2)[Neu5Ac(a2-3)Gal(b1-4)GlcNAc(b1-4)]Man(a1-3)[GlcNAc(b1-4)][Neu5Ac(a2-3)Gal(b1-4)GlcNAc(b1-2)[Neu5Ac(a2-3)Gal(b1-4)GlcNAc(b1-6)]Man(a1-6)]Man(b1-4)GlcNAc(b1-4)GlcNAc
# Method in brief: as §1
# [15] = biological target: Neu5Ac(a2-3)Gal(b1-4)GlcNAc(b1-2)[Neu5Ac(a2-3)Gal(b1-4)GlcNAc(b1-4)]Man(a1-3)[GlcNAc(b1-4)][Neu5Ac(a2-3)Gal(b1-4)GlcNAc(b1-4)Man(a1-6)]Man(b1-4)GlcNAc(b1-4)GlcNAc
# Method in brief: as §1
# [16] = biological target: Neu5Ac(a2-3)Gal(b1-4)GlcNAc(b1-2)[Neu5Ac(a2-3)Gal(b1-4)GlcNAc(b1-6)]Man(a1-6)[Neu5Ac(a2-3)Gal(b1-4)GlcNAc(b1-2)Man(a1-3)]Man(b1-4)GlcNAc(b1-4)GlcNAc
# Method in brief: as §1
# [17] = biological target: Neu5Ac(a2-3)Gal(b1-4)GlcNAc(b1-2)[Neu5Ac(a2-3)Gal(b1-4)GlcNAc(b1-6)]Man(a1-6)[Neu5Ac(a2-3)Gal(b1-4)GlcNAc(b1-2)Man(a1-3)][GlcNAc(b1-4)]Man(b1-4)GlcNAc(b1-4)GlcNAc
# Method in brief: as §1
# [18] = biological target: Neu5Ac(a2-3)Gal(b1-4)GlcNAc(b1-3)Gal
# Method in brief: as §1
# [19] = biological target: Neu5Ac(a2-3)Gal(b1-4)GlcNAc(b1-3)Gal(b1-3)GlcNAc
# Method in brief: as §1
# [20] = biological target: Neu5Ac(a2-3)Gal(b1-4)GlcNAc(b1-3)Gal(b1-4)GlcNAc
# Method in brief: as §1
# [21] = biological target: Neu5Ac(a2-3)Gal(b1-4)GlcNAc(b1-3)Gal(b1-4)GlcNAc(b1-2)Man(a1-3)[Neu5Ac(a2-3)Gal(b1-4)GlcNAc(b1-3)Gal(b1-4)GlcNAc(b1-2)Man(a1-6)]Man(b1-4)GlcNAc(b1-4)GlcNAc
# Method in brief: as §1
# [22] = biological target: Neu5Ac(a2-3)Gal(b1-4)GlcNAc(b1-3)Gal(b1-4)GlcNAc(b1-3)Gal(b1-4)GlcNAc
# Method in brief: as §1
# [23] = biological target: Neu5Ac(a2-3)Gal(b1-4)GlcNAc(b1-3)Gal(b1-4)GlcNAc(b1-3)Gal(b1-4)GlcNAc(b1-2)Man(a1-3)[Neu5Ac(a2-3)Gal(b1-4)GlcNAc(b1-3)Gal(b1-4)GlcNAc(b1-3)Gal(b1-4)GlcNAc(b1-2)Man(a1-6)]GalNAc
# Method in brief: as §1
# [24] = biological target: Neu5Ac(a2-3)Gal(b1-4)GlcNAc(b1-3)Gal(b1-4)GlcNAc(b1-3)GalNAc
# Method in brief: as §1
# [25] = biological target: Neu5Ac(a2-3)Gal(b1-4)GlcNAc(b1-3)Gal(b1-4)GlcNAc(b1-3)[Neu5Ac(a2-3)Gal(b1-4)GlcNAc(b1-3)Gal(b1-4)GlcNAc(b1-6)]GalNAc
# Method in brief: as §1
# [26] = biological target: Neu5Ac(a2-3)Gal(b1-4)GlcNAc(b1-3)Gal(b1-4)GlcNAc(b1-6)[Gal(b1-3)]GalNAc
# Method in brief: as §1
# [27] = biological target: Neu5Ac(a2-3)Gal(b1-4)GlcNAc(b1-3)Gal(b1-4)[Fuc(a1-3)]GlcNAc
# Method in brief: as §1
# [28] = biological target: Neu5Ac(a2-3)Gal(b1-4)GlcNAc(b1-3)GalNAc
# Method in brief: as §1
# [29] = biological target: Neu5Ac(a2-3)Gal(b1-4)GlcNAc(b1-3)[Neu5Ac(a2-3)Gal(b1-4)GlcNAc(b1-6)]GalNAc
# Method in brief: as §1
# [30] = biological target: Neu5Ac(a2-3)Gal(b1-4)GlcNAc(b1-6)GalNAc
# Method in brief: as §1
binder,measurement,setting,value
B1,glycan array binding signal (z-score),[1],-0.304
same,glycan array binding signal (z-score),[2],-0.174
same,glycan array binding signal (z-score),[3],-0.894
same,glycan array binding signal (z-score),[4],0.68
same,glycan array binding signal (z-score),[5],1.18
same,glycan array binding signal (z-score),[6],0.065
same,glycan array binding signal (z-score),[7],0.753
same,glycan array binding signal (z-score),[8],0.671
same,glycan array binding signal (z-score),[9],0.243
same,glycan array binding signal (z-score),[10],0.59
same,glycan array binding signal (z-score),[11],0.413
same,glycan array binding signal (z-score),[12],-0.183
same,glycan array binding signal (z-score),[13],0.024
same,glycan array binding signal (z-score),[14],-0.102
same,glycan array binding signal (z-score),[15],-1.27
same,glycan array binding signal (z-score),[16],-0.583
same,glycan array binding signal (z-score),[17],-1.01
same,glycan array binding signal (z-score),[18],-0.912
same,glycan array binding signal (z-score),[19],-0.651
same,glycan array binding signal (z-score),[20],-0.366
same,glycan array binding signal (z-score),[21],1.97
same,glycan array binding signal (z-score),[22],0.35
same,glycan array binding signal (z-score),[23],-0.249
same,glycan array binding signal (z-score),[24],-0.287
same,glycan array binding signal (z-score),[25],-0.095
same,glycan array binding signal (z-score),[26],1.14
same,glycan array binding signal (z-score),[27],-1.03
same,glycan array binding signal (z-score),[28],0.079
same,glycan array binding signal (z-score),[29],0.087
same,glycan array binding signal (z-score),[30],-0.601
